Experimental data reported in the supplement of paper PMC12889115.
The list shows a part of the results. Values are raw readings; no control value is given beside them.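 In the initial screen, polymyxin B was used at a concentration that permeabilizes Salmonella's outer membrane but not its inner membrane. Maximum growth was set by DMSO wells with or without polymyxin B. Since plates varied, data were ranked per plate, and compounds giving the lowest OD600 advanced as hits.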

Tested on: Salmonella enterica serovar Typhimurium SL1344
Test: bacterial growth OD600 after 18 h with compound and polymyxin B; higher = more bacterial growth (less inhibition)
Details: 50 µM, Mueller-Hinton broth

Compound	bacterial growth OD600 (polymyxin B 0.75 µg/mL)	bacterial growth OD600 (polymyxin B 1 µg/mL)
NC(=O)C1(N2CCCCC2)CCN(C(=O)CCC2(Cc3ccc(Cl)cc3)CCC(=O)N2)CC1 (configuration not stated)	0.827	
CCO[C@H]1[C@H](NC(=O)c2cccnc2)c2ccccc2C12CCN(C(=O)CCn1cnnn1)CC2	0.788	
COc1cccc(-c2n[nH]c3c2CN(Cc2cccc4c2OCO4)CC3)c1	0.369	
Cc1nc(CNC(=O)c2cc(Cn3ccnc3C(C)C)[nH]n2)sc1C		0.895
COc1ccc(CCN2CC(NC(=O)C(C)(C)C)CC2=O)cc1 (configuration not stated)		0.487
Cc1ccccc1-c1noc(-c2ccc(N(C)Cc3nccs3)nc2)n1	0.597	
OC1(Cc2cc(-c3ccccc3)no2)CCN(Cc2cc3ccccc3o2)CC1		0.89
O=C(CCc1nnc(Cc2c[nH]c3ccccc23)o1)NC12CC3CC(CC(C3)C1)C2		0.501
COC(=O)C1CCN(C(=O)c2cc(COc3ccc(F)cc3Cl)on2)CC1		1.02
O=C(Cn1c(=O)oc2ccccc21)NCc1nc(NCCCc2ccccc2)c2ccccc2n1	0.76	
O=C(CCN1CCCC1=O)NCc1cccnc1-n1cnc2ccccc21		1.12
CCN(CC)c1ccc(C(=O)N2CCCN(c3ncccn3)CC2)cn1		0.876
COc1cc(-c2n[nH]cc2CN(CCO)Cc2cccs2)cc(OC)c1OC		1.17
O=C(NCC1CCCO1)c1ccc2oc(Cc3ccc(Cl)cc3)nc2c1 (configuration not stated)	0.007	
CCN1CCN(C2(C(=O)N(C)CC3CCOCC3)Cc3ccccc3C2)CC1	0.858	
CCN(CCn1cccn1)C(=O)c1ccc(OC2CCN(C(=O)C3CC3)CC2)cc1		0.905

Compound	bacterial growth OD600 (polymyxin B 0.75 µg/mL)	bacterial growth OD600 (polymyxin B 1 µg/mL)
O=C(C1CCC1)N1CCc2onc(-c3ccc(Cl)cc3)c2C1	0.571	
CCC(=O)N(C)C(Cc1ccc(F)cc1F)C1CCN(C(=O)C2CC(=O)c3ccccc32)CC1 (configuration not stated)	0.846	
COc1cc(CC2(CCC(=O)NCC3C4CC5CC(C4)CC3C5)CCC(=O)N2)ccc1F (configuration not stated)	0.849	
CN(Cc1cccnc1)C(=O)c1csc2nc(-c3ccc(C(F)(F)F)cc3)cn12		1.07
COC(=O)c1c(OC2CCCC2)cc(=O)n2c1CCN(C(=O)c1cc3ccccc3n1C)CC2	0.007	
CC(Cc1cnccn1)NC(=O)c1cc(COc2cncc(Cl)c2)on1 (configuration not stated)		1.01
CCCn1c(C)c(CC(=O)NCCn2cccn2)c2c1CC(C)(C)CC2=O		0.894
COc1ccc(CCN(C)C2CCCN(C(=O)c3ccoc3C)C2)cc1OC (configuration not stated)		0.712
O=C1CCCCN1CCNc1ccc(-c2nc(Cc3ccccc3)no2)cn1	0.718	
CN1C(=O)CC(CC(=O)N2CCC(c3ccccc3Cl)C2)(c2ccc(-c3ccccc3)cc2)C1=O (configuration not stated)	0.538	
O=C(CC1C(=O)NCCN1Cc1cccc(F)c1F)NCCCc1ccccc1 (configuration not stated)		0.808
COc1ccc(F)c(CN2CCOc3ccc(C(C)(O)COc4ccccc4)cc3C2)c1 (configuration not stated)	0.791	
CSc1ncc(CNCC2(N3CCCCC3)Cc3ccccc3C2)cn1	0.806	
Cc1oc(-c2ccc(NC(=O)Cc3ccccc3)cc2)nc1CNC(=O)c1cc(C(C)C)n[nH]1	0.837	
COc1cccc(CC2(CCC(=O)NCCCc3ccccc3)CCC(=O)N2)c1 (configuration not stated)	0.875	
CCOC(=O)C1CCCCN1C(=O)CSc1ccc2nnc(-c3cccnc3)n2n1 (configuration not stated)	0.858	

Of the compounds above, two contain an aryl thioether with sulfur outside any ring:
Compound	bacterial growth OD600 (polymyxin B 0.75 µg/mL)	bacterial growth OD600 (polymyxin B 1 µg/mL)
CSc1ncc(CNCC2(N3CCCCC3)Cc3ccccc3C2)cn1	0.806	
CCOC(=O)C1CCCCN1C(=O)CSc1ccc2nnc(-c3cccnc3)n2n1 (configuration not stated)	0.858	
